Data taken from publication PMC7605671.
No constants are given. Whether binding was seen depends on the method and setting. Binding seen in cells or lysates may run through a third protein. Some results given as binding are weak or reduced against the parent protein; the word gives no strength. For part of these data: Tags and fused reporters may be left off the sequences shown.

Chains of the proteins cited; added tags and fusions are not shown.
UniProt Q02248: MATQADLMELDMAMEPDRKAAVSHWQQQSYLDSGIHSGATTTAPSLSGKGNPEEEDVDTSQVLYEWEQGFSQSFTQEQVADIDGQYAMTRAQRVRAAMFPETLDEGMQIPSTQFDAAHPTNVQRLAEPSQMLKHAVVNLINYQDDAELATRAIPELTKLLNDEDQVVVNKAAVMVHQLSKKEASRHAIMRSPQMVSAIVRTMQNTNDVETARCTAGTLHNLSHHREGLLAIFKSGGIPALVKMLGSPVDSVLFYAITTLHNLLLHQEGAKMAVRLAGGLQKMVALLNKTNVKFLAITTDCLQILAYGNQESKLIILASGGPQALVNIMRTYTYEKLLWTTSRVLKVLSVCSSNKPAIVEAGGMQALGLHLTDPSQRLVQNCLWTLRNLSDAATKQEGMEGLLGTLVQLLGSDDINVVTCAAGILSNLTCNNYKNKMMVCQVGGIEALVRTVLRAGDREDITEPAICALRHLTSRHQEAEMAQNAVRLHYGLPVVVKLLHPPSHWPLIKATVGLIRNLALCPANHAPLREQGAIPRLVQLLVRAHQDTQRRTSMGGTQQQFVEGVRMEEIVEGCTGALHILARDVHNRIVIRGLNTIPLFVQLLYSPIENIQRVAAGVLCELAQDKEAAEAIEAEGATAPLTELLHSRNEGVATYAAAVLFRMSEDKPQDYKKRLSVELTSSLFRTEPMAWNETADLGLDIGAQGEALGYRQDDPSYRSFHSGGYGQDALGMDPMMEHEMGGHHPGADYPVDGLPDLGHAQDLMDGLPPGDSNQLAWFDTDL

What was measured:
[1] = target: T1, Interferon regulatory factor-1 (IRF1), endogenous in mouse liver after warm IR (mouse (endogenous in liver tissue)) (UniProt P15314); assay: co-IP; mouse liver tissue 6 hrs after warm IR; anti-IRF1 antibody pull-down, Western blot for β-catenin
T1 sequence: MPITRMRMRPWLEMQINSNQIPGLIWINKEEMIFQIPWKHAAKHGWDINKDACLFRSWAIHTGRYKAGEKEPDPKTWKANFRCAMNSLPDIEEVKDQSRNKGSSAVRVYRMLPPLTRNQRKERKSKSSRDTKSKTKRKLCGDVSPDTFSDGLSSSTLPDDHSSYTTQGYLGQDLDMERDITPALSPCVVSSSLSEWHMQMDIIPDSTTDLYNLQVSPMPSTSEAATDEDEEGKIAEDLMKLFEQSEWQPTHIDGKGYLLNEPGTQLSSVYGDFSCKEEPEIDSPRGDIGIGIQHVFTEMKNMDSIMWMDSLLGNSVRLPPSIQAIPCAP

[2] = target: T2, Interferon regulatory factor-1 (IRF1), overexpressed from adenoviral IRF-1 (AdIRF-1) (mouse (Ad-mIRF1)) (UniProt P15314); assay: co-IP; primary mouse hepatocytes infected with IRF1-adenovirus for 48 h; lysate incubated with anti-IRF1 or anti-β-catenin antibody on Protein A/G agarose overnight at 4°C; Western blot for the other protein; control IgG
T2 sequence: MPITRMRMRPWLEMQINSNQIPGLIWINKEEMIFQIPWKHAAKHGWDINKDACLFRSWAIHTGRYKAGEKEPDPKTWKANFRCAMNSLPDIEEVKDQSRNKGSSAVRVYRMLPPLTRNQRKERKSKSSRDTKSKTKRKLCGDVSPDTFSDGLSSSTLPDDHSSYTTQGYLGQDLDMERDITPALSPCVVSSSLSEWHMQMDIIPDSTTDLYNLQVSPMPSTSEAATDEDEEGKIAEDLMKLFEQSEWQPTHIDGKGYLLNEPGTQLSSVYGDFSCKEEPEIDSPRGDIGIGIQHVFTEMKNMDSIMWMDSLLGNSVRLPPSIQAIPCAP

[3] = target: β-catenin (mouse (endogenous in primary hepatocytes and liver tissue)) (UniProt Q02248); assay: as above

Molecule | binding [1] | binding [2] | binding [3]
β-catenin (from UniProt Q02248 1-781) | binds | binds | –
Interferon regulatory factor-1 (IRF1), overexpressed from adenoviral IRF-1 (AdIRF-1) (protein, UniProt P15314 1-329) MPITRMRMRPWLEMQINSNQIPGLIWINKEEMIFQIPWKHAAKHGWDINKDACLFRSWAIHTGRYKAGEKEPDPKTWKANFRCAMNSLPDIEEVKDQSRNKGSSAVRVYRMLPPLTRNQRKERKSKSSRDTKSKTKRKLCGDVSPDTFSDGLSSSTLPDDHSSYTTQGYLGQDLDMERDITPALSPCVVSSSLSEWHMQMDIIPDSTTDLYNLQVSPMPSTSEAATDEDEEGKIAEDLMKLFEQSEWQPTHIDGKGYLLNEPGTQLSSVYGDFSCKEEPEIDSPRGDIGIGIQHVFTEMKNMDSIMWMDSLLGNSVRLPPSIQAIPCAP | – | – | binds
